Test results as given in PMC11178805, “Ligand-based design of [^18F]OXD-2314 for PET imaging in non-Alzheimer’s disease tauopathies” (Nature Communications, 2024).
Further values from the same series stand in other lists.

Assay: Dynamic PET imaging with [^18F]OXD-2314 in baboons
Format: in vivo
Conditions: PET time-activity curve, Figure S18
Procedure: Dynamic PET imaging was performed in a rhesus macaque (macaca mulatta) monkey following the injection of [^18F]OXD-2314 at baseline (104.9 MBq, n = 1) and was repeated in a second [^18F]OXD-2314 study (115.8 MBq, n = 1) where a displacing dose of unlabeled OXD-2314 (0.5 mg/kg) was administered 10 min after [^18F]OXD-2314 injection to verify the absence of specific binding in NHP brain. Venous blood samples were drawn to characterize the metabolic fate of [^18F]OXD-2314 in the macaque. Dynamic [^18F]OXD-2314 PET imaging was also performed in a male (106.6 MBq, n = 1) and a female (115.8 MBq, n = 1) baboon (papio anubis), and venous blood samples were drawn in both baboons to characterize potential effects of sex on radiometabolism. Bilateral regions of interest were defined on 5–8 contiguous axial image planes for the lateral temporal cerebral cortex, cerebellum, striatum, and whole brain, which were used to sample dynamic [^18F]OXD-2314 PET images to determine the time-varying radioactivity concentration expressed in SUV units. [^18F]OXD-2314 readily entered macaque brain (whole brain peak ~2.2 SUV at ~2 min) and distributed uniformly throughout cortical and subcortical grey matter regions (Fig. 5A). […] Radiometabolite analysis of macaque venous blood identified only one, polar radiometabolite, which increased from 37% at 10 min to 77% at 90 min post-injection and was not likely brain penetrant (Figs. S19, S20).
The rate of uptake and clearance of [^18F]OXD-2314 in the brains of a male and a female baboon were compared (Fig. 6A). Initial whole brain uptake was rapid in both baboons, with peak uptake achieved in ~2 min with an SUV of ~2.8 in the male baboon and an SUV of ~1.9 in the female baboon. […] It is not known whether the higher initial brain uptake of [^18F]OXD-2314 observed in a male baboon is due to sex differences, normal physiologic variability, or the additional variability introduced by the effects of anesthesia. No evidence of elevated uptake or retention in the baboon striatum following [^18F]OXD-2314 injection was observed (Fig. S16), a region where high levels of PSP and CBD pathology are expected. Therefore, the normal brain retention patterns of [^18F]OXD-2314 are unlikely to confound the detection of specific signal from PSP and CBD pathology in human subjects.
NHP imaging studies in a male (13 kg) macaca mulata monkey and male (25.7 kg) and female (14.2 kg) papio anubis baboons were carried out in accordance with the guidelines set forth by the Institutional Animal Care and Use Committee at the University of Pittsburgh. Additional details regarding the maintenance of an active environmental enrichment program for the housed NHPs are described in Supplemental Information. Dynamic [^18F]OXD-2314 PET imaging of the brains of the isoflurane anesthetized NHPs was performed using a Siemens Biograph mCT Flow 64-4 R PET/CT scanner ([…], maximum intrinsic spatial resolution of 4.3 mm FWHM[53]. Following a low-dose CT scan for attenuation correction of PET emission data, [^18F]OXD-2314 was injected intravenously and emission data were acquired in list-mode for a period of 90 min. Emission data were binned into a dynamic series of 32 frames (20 sec-10 min) and reconstructed using filtered back projection with Fourier rebinning (FORE + FBP) with standard corrections applied that included attenuation, scatter, electronics dead-time, and physical decay.

With `CO[C@H]1CCCN(c2ccc(-c3cc4cc(O)ccc4[nH]3)c([18F])n2)C1` [[^18F]OXD-2314] the “Cerebellum SUV” value (Time 0.166667 min) was 0.1377 SUV, the “Cortex SUV” value (Time 0.166667 min) was 0.1198 SUV and the “Striatum SUV” value (Time 0.166667 min) was 0.1133 SUV. The “Whole Brain SUV” value (Time 0.166667 min) was 0.1112 SUV, the “Cerebellum SUV” value (Time 0.5 min) was 3.685 SUV and the “Cortex SUV” value (Time 0.5 min) was 2.615 SUV. The “Striatum SUV” value (Time 0.5 min) was 2.848 SUV, the “Whole Brain SUV” value (Time 0.5 min) was 2.426 SUV and the “Cerebellum SUV” value (Time 0.833333 min) was 3.716 SUV. The “Cortex SUV” value (Time 0.833333 min) was 2.798 SUV, the “Striatum SUV” value (Time 0.833333 min) was 3.058 SUV and the “Whole Brain SUV” value (Time 0.833333 min) was 2.708 SUV. The “Cerebellum SUV” value (Time 1.16667 min) was 3.687 SUV, the “Cortex SUV” value (Time 1.16667 min) was 2.909 SUV and the “Striatum SUV” value (Time 1.16667 min) was 3.619 SUV. The “Whole Brain SUV” value (Time 1.16667 min) was 2.788 SUV, the “Cerebellum SUV” value (Time 1.5 min) was 3.989 SUV and the “Cortex SUV” value (Time 1.5 min) was 2.971 SUV. For the same compound, the “Striatum SUV” value (Time 1.5 min) was 3.29 SUV, the “Whole Brain SUV” value (Time 1.5 min) was 2.805 SUV and the “Cerebellum SUV” value (Time 1.83333 min) was 4.135 SUV. The “Cortex SUV” value (Time 1.83333 min) was 3.03 SUV, the “Striatum SUV” value (Time 1.83333 min) was 3.821 SUV and the “Whole Brain SUV” value (Time 1.83333 min) was 2.829 SUV. The “Cerebellum SUV” value (Time 2.25 min) was 3.6952 SUV, the “Cortex SUV” value (Time 2.25 min) was 3.134 SUV and the “Striatum SUV” value (Time 2.25 min) was 3.309 SUV. For the same compound, the “Whole Brain SUV” value (Time 2.25 min) was 2.8189 SUV.
